Test results as given in the supplement of paper PMC8728848.
The list shows a part of the results.

Key:
Assay in all cases: glycan array binding signal (z-score within array); higher = stronger binding
Conditions in all cases: glycan notation: IUPAC condensed, linker removed
[1] = biological target: GlcNAc(a1-4)Gal(b1-3)GlcNAc
Outline: (§1)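 The Consortium for Functional Glycomics database supplied 3228 glycan arrays, of which those lacking an available protein sequence were dropped. The binding signal, a within-array Z-score, was averaged across arrays of the same protein sequence and across linkers. Negative scores can be read as non-binding.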

[2] = biological target: GlcNAc(a1-4)Gal(b1-4)GalNAc
Outline: as §1

[3] = biological target: GlcNAc(a1-4)Gal(b1-4)GlcNAc
Outline: as §1

[4] = biological target: GlcNAc(a1-4)Gal(b1-4)GlcNAc(b1-3)Gal(b1-4)Glc
Outline: as §1

[5] = biological target: GlcNAc(a1-4)Gal(b1-4)GlcNAc(b1-3)Gal(b1-4)GlcNAc
Outline: as §1

[6] = biological target: GlcNAc(a1-4)Gal(b1-4)GlcNAc(b1-3)Gal(b1-4)GlcNAc(b1-3)Gal(b1-4)GlcNAc
Outline: as §1

[7] = biological target: GlcNAc(a1-4)Gal(b1-4)GlcNAc(b1-3)Gal(b1-4)[Fuc(a1-3)]GlcNAc(b1-3)Gal(b1-4)[Fuc(a1-3)]GlcNAc
Outline: as §1

[8] = biological target: GlcNAc(a1-6)Gal(b1-4)GlcNAc
Outline: as §1

[9] = biological target: GlcNAc(b1-2)Gal(b1-3)GalNAc
Outline: as §1

[10] = biological target: GlcNAc(b1-2)Man(a1-3)[GlcNAc(b1-2)Man(a1-6)]Man(b1-4)GlcNAc(b1-4)GlcNAc
Outline: as §1

[11] = biological target: GlcNAc(b1-2)Man(a1-3)[GlcNAc(b1-2)Man(a1-6)]Man(b1-4)GlcNAc(b1-4)[Fuc(a1-6)]GlcNAc
Outline: as §1

[12] = biological target: GlcNAc(b1-2)Man(a1-3)[GlcNAc(b1-4)][GlcNAc(b1-2)Man(a1-6)]Man(b1-4)GlcNAc(b1-4)GlcNAc
Outline: as §1

[13] = biological target: GlcNAc(b1-2)Man(a1-3)[GlcNAc(b1-4)][GlcNAc(b1-2)Man(a1-6)]Man(b1-4)GlcNAc(b1-4)[Fuc(a1-6)]GlcNAc
Outline: as §1

[14] = biological target: GlcNAc(b1-2)[GlcNAc(b1-4)]Man(a1-3)[GlcNAc(b1-2)Man(a1-6)]Man(b1-4)GlcNAc(b1-4)GlcNAc
Outline: as §1

[15] = biological target: GlcNAc(b1-2)[GlcNAc(b1-4)]Man(a1-3)[GlcNAc(b1-4)][GlcNAc(b1-2)Man(a1-6)]Man(b1-4)GlcNAc(b1-4)GlcNAc
Outline: as §1

[16] = biological target: GlcNAc(b1-2)[GlcNAc(b1-4)]Man(a1-3)[GlcNAc(b1-4)][GlcNAc(b1-2)[GlcNAc(b1-6)]Man(a1-6)]Man(b1-4)GlcNAc(b1-4)GlcNAc
Outline: as §1

[17] = biological target: GlcNAc(b1-2)[GlcNAc(b1-4)]Man(a1-3)[GlcNAc(b1-4)][GlcNAc(b1-2)[GlcNAc(b1-6)]Man(a1-6)]Man(b1-4)GlcNAc(b1-4)[Fuc(a1-6)]GlcNAc
Outline: as §1

[18] = biological target: GlcNAc(b1-2)[GlcNAc(b1-6)]Man(a1-6)[GlcNAc(b1-2)Man(a1-3)]Man(b1-4)GlcNAc(b1-4)GlcNAc
Outline: as §1

[19] = biological target: GlcNAc(b1-2)[GlcNAc(b1-6)]Man(a1-6)[GlcNAc(b1-2)Man(a1-3)]Man(b1-4)GlcNAc(b1-4)[Fuc(a1-6)]GlcNAc
Outline: as §1

[20] = biological target: GlcNAc(b1-2)[GlcNAc(b1-6)]Man(a1-6)[GlcNAc(b1-4)][GlcNAc(b1-2)Man(a1-3)]Man(b1-4)GlcNAc(b1-4)GlcNAc
Outline: as §1

GlcNAc(b1-3)Fuc = biological target: GlcNAc(b1-3)Fuc
Outline: as §1

GlcNAc(b1-3)Gal = biological target: GlcNAc(b1-3)Gal
Outline: as §1

[21] = biological target: GlcNAc(b1-3)Gal(b1-3)GalNAc
Outline: as §1

GlcNAc(b1-3)Gal(b1-4)Glc = biological target: GlcNAc(b1-3)Gal(b1-4)Glc
Outline: as §1

[22] = biological target: GlcNAc(b1-3)Gal(b1-4)GlcNAc
Outline: as §1

[23] = biological target: GlcNAc(b1-3)Gal(b1-4)GlcNAc(b1-2)Man(a1-3)[GlcNAc(b1-3)Gal(b1-4)GlcNAc(b1-2)Man(a1-6)]Man(b1-4)GlcNAc(b1-4)GlcNAc
Outline: as §1

[24] = biological target: GlcNAc(b1-3)Gal(b1-4)GlcNAc(b1-2)Man(a1-3)[GlcNAc(b1-3)Gal(b1-4)GlcNAc(b1-2)Man(a1-6)]Man(b1-4)GlcNAc(b1-4)[Fuc(a1-6)]GlcNAc
Outline: as §1

[25] = biological target: GlcNAc(b1-3)Gal(b1-4)GlcNAc(b1-2)[GlcNAc(b1-3)Gal(b1-4)GlcNAc(b1-6)]Man(a1-6)[GlcNAc(b1-3)Gal(b1-4)GlcNAc(b1-2)Man(a1-3)]Man(b1-4)GlcNAc(b1-4)GlcNAc
Outline: as §1

[26] = biological target: GlcNAc(b1-3)Gal(b1-4)GlcNAc(b1-3)Gal(b1-4)GlcNAc
Outline: as §1

[27] = biological target: GlcNAc(b1-3)Gal(b1-4)GlcNAc(b1-3)Gal(b1-4)GlcNAc(b1-2)Man(a1-3)[GlcNAc(b1-3)Gal(b1-4)GlcNAc(b1-3)Gal(b1-4)GlcNAc(b1-2)Man(a1-6)]Man(b1-4)GlcNAc(b1-4)GlcNAc
Outline: as §1

[28] = biological target: GlcNAc(b1-3)Gal(b1-4)GlcNAc(b1-3)Gal(b1-4)GlcNAc(b1-2)Man(a1-3)[GlcNAc(b1-3)Gal(b1-4)GlcNAc(b1-3)Gal(b1-4)GlcNAc(b1-2)Man(a1-6)]Man(b1-4)GlcNAc(b1-4)[Fuc(a1-6)]GlcNAc
Outline: as §1

[29] = biological target: GlcNAc(b1-3)Gal(b1-4)GlcNAc(b1-3)Gal(b1-4)GlcNAc(b1-2)[GlcNAc(b1-3)Gal(b1-4)GlcNAc(b1-3)Gal(b1-4)GlcNAc(b1-6)]Man(a1-6)[GlcNAc(b1-3)Gal(b1-4)GlcNAc(b1-3)Gal(b1-4)GlcNAc(b1-2)Man(a1-3)]Man(b1-4)GlcNAc(b1-4)[Fuc(a1-6)]GlcNAc
Outline: as §1

[30] = biological target: GlcNAc(b1-3)Gal(b1-4)GlcNAc(b1-3)Gal(b1-4)GlcNAc(b1-3)Gal(b1-4)GlcNAc(b1-2)Man(a1-3)[GlcNAc(b1-3)Gal(b1-4)GlcNAc(b1-3)Gal(b1-4)GlcNAc(b1-3)Gal(b1-4)GlcNAc(b1-2)Man(a1-6)]Man(b1-4)GlcNAc(b1-4)GlcNAc
Outline: as §1

[31] = biological target: GlcNAc(b1-3)Gal(b1-4)GlcNAc(b1-3)Gal(b1-4)GlcNAc(b1-3)Gal(b1-4)GlcNAc(b1-2)Man(a1-3)[GlcNAc(b1-3)Gal(b1-4)GlcNAc(b1-3)Gal(b1-4)GlcNAc(b1-3)Gal(b1-4)GlcNAc(b1-2)Man(a1-6)]Man(b1-4)GlcNAc(b1-4)[Fuc(a1-6)]GlcNAc
Outline: as §1

[32] = biological target: GlcNAc(b1-3)Gal(b1-4)GlcNAc(b1-3)Gal(b1-4)GlcNAc(b1-3)Gal(b1-4)GlcNAc(b1-2)[GlcNAc(b1-3)Gal(b1-4)GlcNAc(b1-3)Gal(b1-4)GlcNAc(b1-3)Gal(b1-4)GlcNAc(b1-6)]Man(a1-6)[GlcNAc(b1-3)Gal(b1-4)GlcNAc(b1-3)Gal(b1-4)GlcNAc(b1-3)Gal(b1-4)GlcNAc(b1-2)Man(a1-3)]Man(b1-4)GlcNAc(b1-4)[Fuc(a1-6)]GlcNAc
Outline: as §1

[33] = biological target: GlcNAc(b1-3)Gal(b1-4)GlcNAc(b1-3)Gal(b1-4)GlcNAc(b1-3)Gal(b1-4)GlcNAc(b1-3)Gal(b1-4)GlcNAc(b1-2)Man(a1-3)[GlcNAc(b1-3)Gal(b1-4)GlcNAc(b1-3)Gal(b1-4)GlcNAc(b1-3)Gal(b1-4)GlcNAc(b1-3)Gal(b1-4)GlcNAc(b1-2)Man(a1-6)]Man(b1-4)GlcNAc(b1-4)GlcNAc
Outline: as §1

[34] = biological target: GlcNAc(b1-3)Gal(b1-4)GlcNAc(b1-3)Gal(b1-4)GlcNAc(b1-3)Gal(b1-4)GlcNAc(b1-3)Gal(b1-4)GlcNAc(b1-2)Man(a1-3)[GlcNAc(b1-3)Gal(b1-4)GlcNAc(b1-3)Gal(b1-4)GlcNAc(b1-3)Gal(b1-4)GlcNAc(b1-3)Gal(b1-4)GlcNAc(b1-2)Man(a1-6)]Man(b1-4)GlcNAc(b1-4)[Fuc(a1-6)]GlcNAc
Outline: as §1

[35] = biological target: GlcNAc(b1-3)Gal(b1-4)GlcNAc(b1-3)Gal(b1-4)GlcNAc(b1-3)Gal(b1-4)GlcNAc(b1-3)Gal(b1-4)GlcNAc(b1-2)[GlcNAc(b1-3)Gal(b1-4)GlcNAc(b1-3)Gal(b1-4)GlcNAc(b1-3)Gal(b1-4)GlcNAc(b1-3)Gal(b1-4)GlcNAc(b1-6)]Man(a1-6)[GlcNAc(b1-3)Gal(b1-4)GlcNAc(b1-3)Gal(b1-4)GlcNAc(b1-3)Gal(b1-4)GlcNAc(b1-3)Gal(b1-4)GlcNAc(b1-2)Man(a1-3)]Man(b1-4)GlcNAc(b1-4)[Fuc(a1-6)]GlcNAc
Outline: as §1

B1: PX14375A-pdi-503-28-503 (Parabacteroides distasonis) (protein)
chain: PLGSPEAGDISEERQAFLRLTAVYSVMKDFRYTWSMQCFGDVLSNDATYSGSSNDAQTFTLLENYQYQADHTEILNKYRYSYQCINKANLFIRDMEMADDALFSKYDKEQMIGEAKFIRAYTYFELVKTFGGVPCYTGVLDLDHERLGRASVEEIYSVIEQDLNDAVSVLPKKSEVANYESSYAGRITKGAAIAMQTRIYLYEKKYDEVKKAFEKFQNECGGEYSLVAPEDYTWQFSLDGEHCSSSILEVNMYNSSTQSSYNVNNGNRHVLMSMPRNMTIGFGCAQPTQALADAYDAEGDVIRKKTTLLSTEEAIEIETAAKGDVAPVTDDRTGWYNRKLYLAPGQREENRGNNQPTNLRLIRLAEVYLNYAEACYFSGDIANAQKYLNEVRSHVNLAPKNHTGSQLFEDIMNERHLEFGMEGFRFFDVVRVGWGEKVFNGTKKAEFGAKTPFSAGAEVLPIPQTEIDISDGLITN
[1]
  glycan array binding signal (z-score): -0.024
[2]
  glycan array binding signal (z-score): 0.594
[3]
  glycan array binding signal (z-score): -0.163
[4]
  glycan array binding signal (z-score): -0.684
[5]
  glycan array binding signal (z-score): -0.526
[6]
  glycan array binding signal (z-score): -0.269
[7]
  glycan array binding signal (z-score): 1.27
[8]
  glycan array binding signal (z-score): -0.381
[9]
  glycan array binding signal (z-score): 0.376
[10]
  glycan array binding signal (z-score): -0.77
[11]
  glycan array binding signal (z-score): -0.328
[12]
  glycan array binding signal (z-score): 0.931
[13]
  glycan array binding signal (z-score): 0.491
[14]
  glycan array binding signal (z-score): -0.628
[15]
  glycan array binding signal (z-score): -0.163
[16]
  glycan array binding signal (z-score): -0.182
[17]
  glycan array binding signal (z-score): -0.185
[18]
  glycan array binding signal (z-score): 0.32
[19]
  glycan array binding signal (z-score): -0.335
[20]
  glycan array binding signal (z-score): -0.508
GlcNAc(b1-3)Fuc
  glycan array binding signal (z-score): -0.002
GlcNAc(b1-3)Gal
  glycan array binding signal (z-score): -0.646
[21]
  glycan array binding signal (z-score): 0.323
GlcNAc(b1-3)Gal(b1-4)Glc
  glycan array binding signal (z-score): 0.46
[22]
  glycan array binding signal (z-score): -0.584
[23]
  glycan array binding signal (z-score): 0.025
[24]
  glycan array binding signal (z-score): 0.465
[25]
  glycan array binding signal (z-score): 0.924
[26]
  glycan array binding signal (z-score): -0.191
[27]
  glycan array binding signal (z-score): 1.59
[28]
  glycan array binding signal (z-score): 0.425
[29]
  glycan array binding signal (z-score): 0.603
[30]
  glycan array binding signal (z-score): 0.308
[31]
  glycan array binding signal (z-score): 0.303
[32]
  glycan array binding signal (z-score): 0.489
[33]
  glycan array binding signal (z-score): 1.23
[34]
  glycan array binding signal (z-score): 0.171
[35]
  glycan array binding signal (z-score): 0.329
